Reference: PubChem BioAssay AID1224830 (NIAID, 2016)
The whole screen tested about 18,000 reagents; shown is a part drawn at random. Over the whole deposit, about 2,900 (16%) are marked active. 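Calls are made per well; low scores hint the gene aids the LPS response, high scores that it dampens it.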 Repeated entries: four replicate wells of each siRNA pool. No sequences are given here.

Test: 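Host factors that control LPS-induced TNF expression in human macrophages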 (primary screen)
Cell system: human THP-1 monocytic leukaemia cells, TNF dual-luciferase reporter clone, PMA-differentiated to macrophage-like cells
Knock-down reagent: siRNA pool against human genes, 50 nM
Time to read-out: LPS for 4 h, given about 3 days after siRNA transfection
Conditions: bacterial LPS (TLR4 ligand), 10 ng/ml
Measured: 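TNF firefly reporter luminescence divided by renilla, normalised to the plate median, then turned into a robust z-score for each replicate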
Scale: TNF reporter robust z-score: higher = stronger TNF reporter response to LPS
Call rule: 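a well is active when its z-score exceeds 2.8 or falls below -1.5; control wells carry no call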

The first 7 records, to show the layout:
target gene,TNF reporter robust z-score,Call
ALK,-1.98,active
ALK,-1.92,active
ALK,-1.73,active
ALK,-1.13,inactive
PRKCQ,-0.75,inactive
PRKCQ,0.16,inactive
PRKCQ,-0.33,inactive

The listing, from the first entry:
target gene,TNF reporter robust z-score,Call
ALK,-1.98,active
ALK,-1.92,active
ALK,-1.73,active
ALK,-1.13,inactive
PRKCQ,-0.75,inactive
PRKCQ,0.16,inactive
PRKCQ,-0.33,inactive
PRKCQ,1.06,inactive
SCGB1A1,-0.09,inactive
SCGB1A1,-0.32,inactive
SCGB1A1,0.93,inactive
SCGB1A1,0.49,inactive
EBF2,1.05,inactive
EBF2,1.61,inactive
EBF2,1.38,inactive
EBF2,1.93,inactive
COG4,-0.62,inactive
COG4,0.64,inactive
COG4,-0.44,inactive
SLC68A1,2.15,inactive
SLC68A1,1.24,inactive
SLC68A1,0.7,inactive
SLC68A1,2.09,inactive
VEGFA,0.61,inactive
VEGFA,8.35,active
VEGFA,1.97,inactive
VEGFA,0.77,inactive
NAB2,0.74,inactive
NAB2,0.51,inactive
NAB2,0.57,inactive
SDR42E1,-0.88,inactive
SDR42E1,0.3,inactive
SDR42E1,0.53,inactive
SDR42E1,-0.59,inactive
PTCD2,-0.74,inactive
PTCD2,-1.09,inactive
PTCD2,-0.73,inactive
PTCD2,-1.26,inactive
PCDH11Y,-0.59,inactive
PCDH11Y,-0.11,inactive
PCDH11Y,-0.44,inactive
PCDH11Y,0.79,inactive
TBC1D9,0.13,inactive
TBC1D9,0.04,inactive
TBC1D9,-0.81,inactive
TBC1D9,-0.04,inactive
NAPB,-1.46,inactive
NAPB,-1.23,inactive
NAPB,-1.2,inactive
NAPB,-1.14,inactive
MSL2,3,active
MSL2,1.06,inactive
MSL2,-0.43,inactive
MSL2,1.86,inactive
ITGAV,-1.33,inactive
ITGAV,-0.68,inactive
ITGAV,-1.14,inactive
ITGAV,0.5,inactive
METTL3,1.58,inactive
METTL3,2.15,inactive
METTL3,2.09,inactive
METTL3,3.92,active
BCL9,-0.25,inactive
BCL9,-0.23,inactive
BCL9,-0.37,inactive
BCL9,-0.08,inactive
MYBL2,-1.73,active
MYBL2,-1.98,active
MYBL2,-1.79,active
MYBL2,-1.68,active
TMEM88,0.29,inactive
TMEM88,-0.55,inactive
TMEM88,-1.41,inactive
TMEM88,-0.9,inactive
RFK,-1.59,active
RFK,-1.22,inactive
RFK,-1.47,inactive
RFK,-1.69,active
RAI14,-0.99,inactive
RAI14,-0.25,inactive
RAI14,-0.64,inactive
RAI14,-0.62,inactive
ZSCAN18,0.36,inactive
ZSCAN18,-0.07,inactive
ZSCAN18,-0.24,inactive
ZSCAN18,-0.39,inactive
XPNPEP3,-0.41,inactive
XPNPEP3,0.18,inactive
XPNPEP3,0.01,inactive
XPNPEP3,0.91,inactive
PITX1,-1.94,active
PITX1,-1.49,inactive
PITX1,-2.09,active
PITX1,-1.89,active
MAP1A,0.67,inactive
MAP1A,-0.06,inactive
MAP1A,0.79,inactive
MAP1A,1.34,inactive
NGRN,1.48,inactive
NGRN,1.45,inactive
NGRN,1.13,inactive
NGRN,3.14,active
GGPS1,0.07,inactive
GGPS1,1.38,inactive
GGPS1,0.21,inactive
GGPS1,0.2,inactive
SUFU,-1.32,inactive
SUFU,-1.85,active
SUFU,-1.11,inactive
SUFU,-1.98,active
